44 molecules from the supplement of paper PMC5407854, “Inhibitor of ppGalNAc-T3-mediated O-glycosylation blocks cancer cell invasiveness and lowers FGF23 levels” (eLife, 2017) can be followed below.

Structures are written as SMILES. Over roughly 1,700 compounds, “T2 sensor activation Q score (MG/GFP ratio z-score vs DMSO controls)” has its median near 0.3; the highest 2% begin near 1.9. Some of the results follow.

The subject of this assay is ppGalNAc-T2 sensor. The assay is described as follows: T2 sensor activation Q score (MG/GFP ratio z-score vs DMSO controls) (SD units); higher = more sensor activation (inhibition of ppGalNAc-T2 glycosylation). To be noted: HEK293 sensor cells; 10 µM; 6 h. The protocol: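 Cells were treated with compound at 10 uM for 6 h, then MG/GFP ratio was read by flow cytometry (10,000 cells per well, duplicate wells). Q = (R - R_neg)/SD_neg relative to DMSO vehicle controls; the signal rises when the glycosyltransferase is inhibited.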
Consider `c1ccc(C2NCCc3[nH]cnc32)cc1` (centres undefined), for which the “T2 sensor activation Q score” value was -1.1.

Take `CCOC(=O)c1ccc2[nH]c(-c3ccc(S(=O)(=O)F)cc3)cc(=O)c2c1`: the “T2 sensor activation Q score” value came out at 1.1.

With `O=C1CN=C(c2ccc[nH]2)c2cc(Cl)ccc2N1`, the “T2 sensor activation Q score” value was -0.55.

For the molecule `O=C(CF)N(O)c1ccc(/C=C/c2ccccc2)cc1`, the “T2 sensor activation Q score” value was -0.7.

Take `Cc1cc(OCCN2CC2)c2ccccc2n1`: the “T2 sensor activation Q score” value was -0.45.

Turning to `CC(C)NC1C2CCC(CC2)C1(O)c1ccc(Cl)c(Cl)c1` (centres undefined), the “T2 sensor activation Q score” value was -1.4.

In the case of `O=C(NC(=O)c1c(F)cccc1F)Nc1cc(Cl)c(F)c(Cl)c1F`, the “T2 sensor activation Q score” value came to 0.55.

In the case of `CO[C@@]12[C@H](COC(N)=O)C3=C(C(=O)C(C)=C(N)C3=O)N1C[C@H]1[C@@H]2N1C` (some centres undefined), the “T2 sensor activation Q score” value was found to be 0.35.

`S=C1NC2(CCCCC2)NC12CCCCC2`: the “T2 sensor activation Q score” value amounted to 1.7.

With `CC(C)(O)C1C2OC(=O)C1C1(O)CC3OC34C(=O)OC2C14C` (centres undefined), the “T2 sensor activation Q score” value turned out to be 1.3.

As for `CC1CC(C)OP(=O)(OCCC#N)O1` (centres undefined), the “T2 sensor activation Q score” value worked out at 0.35.

With `COC1C(OC(=O)c2ccc(C)[nH]2)C(O)C(Oc2ccc3c(O)c(NC(=O)c4ccc(O)c(CC=C(C)C)c4)c(=O)oc3c2Cl)OC1(C)C` (centres undefined), the “T2 sensor activation Q score” value stood at 0.75.

For the molecule `CCC(CO)NC(=O)C1C=C2c3cccc4[nH]cc(c34)CC2N(C)C1` (centres undefined), the “T2 sensor activation Q score” value is -0.05.

Take `COc1ccc(CCNC2(C#N)CCCCC2)cc1OC`: the “T2 sensor activation Q score” value was -0.65.

For the molecule `Cc1c(CCN)ccc2c1[nH]c1ccccc12`, the “T2 sensor activation Q score” value came to 0.7.

Consider `CC12CCC3C(CCC4Cc5[nH]c6ccccc6c5CC43C)C1CCC2O` (centres undefined), for which the “T2 sensor activation Q score” value worked out at 0.65.

For the molecule `CCC(C)c1cnc(CC(C)C)c(=O)n1O` (centres undefined), the “T2 sensor activation Q score” value is -0.75.

For `CCN1CCc2ccccc2C1`, the “T2 sensor activation Q score” value was found to be 1.3.

`NCCCNCCSP(=O)(O)O`: the “T2 sensor activation Q score” value is -0.45.

With `C[C@H](N)C(=O)N[C@@H]1[C@H]2C(=C(O)C[C@@H](O)[C@@H]2O)C(=O)O[C@]1(C)C(Cl)Cl`, the “T2 sensor activation Q score” value came to 1.8.

For `CC1(C)CC(=O)CC(C)(C)N1O`, the “T2 sensor activation Q score” value is -1.1.

Turning to `CN1C2c3ccccc3C3C4c5ccccc5C(C31)C(C2[N+](=O)[O-])N4C` (centres undefined), the “T2 sensor activation Q score” value worked out at 0.85.

For `CC(=O)Nc1cc([As](=O)(O)O)ccc1O`, the “T2 sensor activation Q score” value was determined as 0.2.

For the molecule `O=C(O)CN1C(=O)CN=C(c2ccccn2)c2cc(Cl)ccc21`, the “T2 sensor activation Q score” value amounted to 1.7.

As for `C/C=C/CC1(CC)C(=O)NC(=S)NC1=O`, the “T2 sensor activation Q score” value worked out at 0.45.

On to `CCC1CN1P(=O)(Oc1ccc(Cl)cc1)N1CC1CC` (centres undefined), for which the “T2 sensor activation Q score” value came out at 0.7.

Regarding `CN(C)C1CCc2[nH]c3c(F)cc(F)cc3c2C1` (centres undefined), the “T2 sensor activation Q score” value is -0.15.

Consider `CN1CCC2(O)OCCCC2C1` (centres undefined), for which the “T2 sensor activation Q score” value was determined as 1.05.

For the molecule `NC(=S)c1cn([C@@H]2O[C@H](CO)[C@@H](O)[C@H]2O)c2ncnc(N)c12`, the “T2 sensor activation Q score” value was determined as 1.1.

Turning to `C1CN1c1nc(N2CC2)nc(N2CC2)n1`, the “T2 sensor activation Q score” value was -0.6.

Consider `O=C(O)c1[nH]c(=O)[nH]c(=O)c1F`, for which the “T2 sensor activation Q score” value was found to be 1.85.

In the case of `Cc1c(C(=O)c2ccccc2)c2ccccc2n1C`, the “T2 sensor activation Q score” value worked out at 1.75.

On to `COc1cc(C=C2C(=O)NC(=O)NC2=O)ccc1O`, for which the “T2 sensor activation Q score” value amounted to 0.65.

Take `COc1cc2c(cc1O)C[C@H]1c3c(cc(O)c(OC)c3-2)CCN1C`: the “T2 sensor activation Q score” value is 0.75.

With `CN1C(=O)CC[C@@]2(C)C1=CC[C@@H]1[C@@H]2CC[C@@]2(C)[C@H]1CC[C@]2(C)O`, the “T2 sensor activation Q score” value is -0.25.

For the molecule `CC(=O)Nc1ccc([As](=O)(O)c2ccc([N+](=O)[O-])cc2)cc1`, the “T2 sensor activation Q score” value is 0.35.

In the case of `O=P1(N(CCCl)CCCl)NCCCO1` (centres undefined), the “T2 sensor activation Q score” value was -1.

On to `COc1ccc(C(=O)OC2CCC3(C)C4CCC5C6(O)CC(O)C7(O)C(CN8CC(C)CCC8C7(C)O)C6(O)CC53OC24O)cc1OC` (centres undefined), for which the “T2 sensor activation Q score” value was -0.4.

With `COc1ccc2c(c1)NP(=S)(Oc1ccccc1)N2` (centres undefined), the “T2 sensor activation Q score” value is -0.4.

On to `C=C1C[C@@H]2[C@H](CC[C@]3(C)C(=O)CC[C@@H]23)[C@@]2(C)C=CC(=O)C=C12`, for which the “T2 sensor activation Q score” value is -1.65.

Take `CN(C)P(=O)(N(C)C)N1CC1`: the “T2 sensor activation Q score” value was -0.35.

With `C1CC2NCCC3NCCC(N1)N32` (centres undefined), the “T2 sensor activation Q score” value was -0.55.

As for `Cn1cc(C=O)c2nccnc21`, the “T2 sensor activation Q score” value is -0.4.

Take `C=CCN1CCC23c4c5ccc(O)c4OC2C(=O)CCC3(O)C1C5` (centres undefined): the “T2 sensor activation Q score” value came to 2.2.
